The whole screen tested about 2,200 compounds, of which about 15 (0.7%) were called active.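 The calls were made as follows: active = fitted half-maximal concentration for loss of luminescence signal no more than a set limit of log units above the top tested concentration; inconclusive = flat fit with 30 to 70% signal loss, or invalid fit; inactive = half-maximal concentration above that set limit.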 The list shows a part of the results.

The nature of the test: inhibitors of ADP-Glo detection reagents, dose response, artefact control for GSK3beta inhibitor project, biochemical, luminescence, cell-free, homogeneous (AID 434947).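 Also: kinase-free counter screen of ADP-Glo detection reagents for GSK3beta hits.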 Particulars: 5 uM ADP.
Usually EC50 stands for the concentration at which the effect is half-maximal. Take `NS(=O)(=O)c1ccc(CCNC(=O)C(=O)c2cn(CC(=O)N3CCCC3)c3ccccc23)cc1`: the EC50 is inactive: > 30 µM.
The result for `COc1cc2[nH]c(=O)n3nc(-c4ccccc4)nc3c2cc1OC` reads inactive: > 30 µM; that for `Brc1ccc(CSc2nnc(-c3cccnc3)o2)cc1`, inactive: > 30 µM; that for `CCn1c(SCC(=O)Nc2nccs2)nnc1C1CC1`, inactive: > 30 µM.
For the compound `COC(=O)c1nnn(-c2nonc2N)c1-c1cccs1`, the EC50 was inactive: > 30 µM.
`NS(=O)(=O)c1ccc(N=Nc2c(O)[nH]c3ccc(Br)cc23)cc1`: the EC50 was inactive: > 30 µM.
On to `C/C(=N\O)c1ncc(C(F)(F)F)cc1Cl`, for which the EC50 was inactive: > 30 µM.
Take `CCCCC(CC)C(=O)Nc1ncc([N+](=O)[O-])s1` (stereo unspecified): the EC50 was inactive: > 30 µM.
The result for `CC(C)CCn1c(CN2CCN(c3cccc(Cl)c3)CC2)nc2c1c(=O)n(C)c(=O)n2C` reads inactive: > 30 µM; that for `CCN(CC)CCOC(=O)c1ccc(NC(=S)NC(=O)/C=C/c2ccco2)cc1`, inactive: > 30 µM; that for `O=C1CC(c2c[nH]c3ccccc23)C(=O)N1c1ccccc1` (stereo unspecified), inactive: > 30 µM.
In the case of `c1ccc(-c2nc(NCc3cccnc3)c3ccccc3n2)cc1`, the EC50 was inactive: > 0.42 µM.
Under `C[C@H](C(O)c1ccccc1)N(C)C(=O)CN` (stereo partly specified) stands inactive: > 30 µM; under `Cc1ccc2c(CN3CCN(Cc4ccccc4)CC3)cc(=O)oc2c1C`, inactive: > 30 µM.
Under `O=C(CN(Cc1cccs1)C(=O)CCC(=O)Nc1ccccn1)NCc1ccccc1` stands inactive: > 30 µM.
Take `COc1ccc(CN(CC(=O)NCc2ccccc2)C(=O)CCC(=O)Nc2cc(C)ccn2)cc1`: the EC50 was inactive: > 30 µM.
The result for `COc1ccc2nc(C)cc(N3CCOCC3)c2c1` reads inactive: > 30 µM.
In the case of `Nc1nc(Nc2ccccc2F)nc(NCCO)c1[N+](=O)[O-]`, the EC50 is inactive: > 30 µM.
The result for `N#Cc1c(-c2ccccc2)nc(-c2cccnc2)[nH]c1=O` reads inactive: > 30 µM; that for `CC1(C)CC(=O)C=C(Nc2ccccn2)C1`, inactive: > 30 µM; that for `Cc1ccc(C(=O)COC(=O)c2ccc(O)cc2)cc1`, inactive: > 30 µM.
For `COc1cccc(C(=O)Nc2nc3ccc(S(C)(=O)=O)cc3s2)c1`, the EC50 is inactive: > 30 µM.
`O=c1c2c3c(sc2n2c(=S)[nH]nc2n1-c1ccccc1)CCC3`: the EC50 was inactive: > 30 µM.
The result for `CCCn1c(SCC(=O)Nc2ccccc2OC)nnc1-c1ccco1` reads inactive: > 30 µM.
Consider `CCN1CCN(c2cc(C)c3cc(NC(=O)c4cc(OC)cc(OC)c4)ccc3n2)CC1`, for which the EC50 was inactive: > 30 µM.
With `C=CCNc1nc(N)c([N+](=O)[O-])c(Nc2cccc(Cl)c2)n1`, the EC50 was inactive: > 30 µM.

(Values after PubChem BioAssay AID434947 (Broad Institute, 2010).)
